According to article PMC9996882:
No constants are given. Whether binding was seen depends on the method and setting. Binding seen in cells or lysates may run through a third protein. Some entries that bind do so weakly or less than the wild type.

The chains behind the UniProt entries cited, without tags or fusion partners.
UniProt P61244: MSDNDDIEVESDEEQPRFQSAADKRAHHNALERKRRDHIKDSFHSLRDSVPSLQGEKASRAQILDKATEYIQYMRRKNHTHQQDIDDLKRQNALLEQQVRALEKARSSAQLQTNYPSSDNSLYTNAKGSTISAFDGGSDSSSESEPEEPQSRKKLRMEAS

Target: T1, Polycomb group RING finger protein 6 (PCGF6) (human (endogenous in human pRCC cell lines)) (UniProt Q9BYE7)
T1 sequence: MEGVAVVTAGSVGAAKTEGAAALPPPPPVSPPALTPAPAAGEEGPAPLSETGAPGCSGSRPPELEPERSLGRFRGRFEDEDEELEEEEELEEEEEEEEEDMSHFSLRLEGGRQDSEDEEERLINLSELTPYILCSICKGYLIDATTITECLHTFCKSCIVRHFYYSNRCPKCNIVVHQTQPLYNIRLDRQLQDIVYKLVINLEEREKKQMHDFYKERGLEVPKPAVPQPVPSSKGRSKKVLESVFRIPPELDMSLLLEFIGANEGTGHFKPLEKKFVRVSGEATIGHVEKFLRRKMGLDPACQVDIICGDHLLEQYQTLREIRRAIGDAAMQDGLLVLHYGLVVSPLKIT
Test: co-IP; antibody on magnetic beads (MCE) incubated with cell lysate, washed four times, eluted at 100 °C, read by Western blot; precipitating antibody not stated for Fig. 5g

| binding | Substance |
| --- | --- |
| binds | KDM5D (from UniProt Q9BY66 1-1539) |
| binds | MAX (from UniProt P61244 1-160) |
